Data published in publication doi:10.1101/2023.08.23.554515.
Results are given in words; binding and its absence hold for the method and conditions named. For part of these data: In cells and extracts the contact can be indirect. Some results given as binding are weak or reduced against the parent protein; the word gives no strength. Sequences can lack the tags named with a protein.

Amino acid sequences for entries named in this document (tags omitted).
UniProt Q9C5X9: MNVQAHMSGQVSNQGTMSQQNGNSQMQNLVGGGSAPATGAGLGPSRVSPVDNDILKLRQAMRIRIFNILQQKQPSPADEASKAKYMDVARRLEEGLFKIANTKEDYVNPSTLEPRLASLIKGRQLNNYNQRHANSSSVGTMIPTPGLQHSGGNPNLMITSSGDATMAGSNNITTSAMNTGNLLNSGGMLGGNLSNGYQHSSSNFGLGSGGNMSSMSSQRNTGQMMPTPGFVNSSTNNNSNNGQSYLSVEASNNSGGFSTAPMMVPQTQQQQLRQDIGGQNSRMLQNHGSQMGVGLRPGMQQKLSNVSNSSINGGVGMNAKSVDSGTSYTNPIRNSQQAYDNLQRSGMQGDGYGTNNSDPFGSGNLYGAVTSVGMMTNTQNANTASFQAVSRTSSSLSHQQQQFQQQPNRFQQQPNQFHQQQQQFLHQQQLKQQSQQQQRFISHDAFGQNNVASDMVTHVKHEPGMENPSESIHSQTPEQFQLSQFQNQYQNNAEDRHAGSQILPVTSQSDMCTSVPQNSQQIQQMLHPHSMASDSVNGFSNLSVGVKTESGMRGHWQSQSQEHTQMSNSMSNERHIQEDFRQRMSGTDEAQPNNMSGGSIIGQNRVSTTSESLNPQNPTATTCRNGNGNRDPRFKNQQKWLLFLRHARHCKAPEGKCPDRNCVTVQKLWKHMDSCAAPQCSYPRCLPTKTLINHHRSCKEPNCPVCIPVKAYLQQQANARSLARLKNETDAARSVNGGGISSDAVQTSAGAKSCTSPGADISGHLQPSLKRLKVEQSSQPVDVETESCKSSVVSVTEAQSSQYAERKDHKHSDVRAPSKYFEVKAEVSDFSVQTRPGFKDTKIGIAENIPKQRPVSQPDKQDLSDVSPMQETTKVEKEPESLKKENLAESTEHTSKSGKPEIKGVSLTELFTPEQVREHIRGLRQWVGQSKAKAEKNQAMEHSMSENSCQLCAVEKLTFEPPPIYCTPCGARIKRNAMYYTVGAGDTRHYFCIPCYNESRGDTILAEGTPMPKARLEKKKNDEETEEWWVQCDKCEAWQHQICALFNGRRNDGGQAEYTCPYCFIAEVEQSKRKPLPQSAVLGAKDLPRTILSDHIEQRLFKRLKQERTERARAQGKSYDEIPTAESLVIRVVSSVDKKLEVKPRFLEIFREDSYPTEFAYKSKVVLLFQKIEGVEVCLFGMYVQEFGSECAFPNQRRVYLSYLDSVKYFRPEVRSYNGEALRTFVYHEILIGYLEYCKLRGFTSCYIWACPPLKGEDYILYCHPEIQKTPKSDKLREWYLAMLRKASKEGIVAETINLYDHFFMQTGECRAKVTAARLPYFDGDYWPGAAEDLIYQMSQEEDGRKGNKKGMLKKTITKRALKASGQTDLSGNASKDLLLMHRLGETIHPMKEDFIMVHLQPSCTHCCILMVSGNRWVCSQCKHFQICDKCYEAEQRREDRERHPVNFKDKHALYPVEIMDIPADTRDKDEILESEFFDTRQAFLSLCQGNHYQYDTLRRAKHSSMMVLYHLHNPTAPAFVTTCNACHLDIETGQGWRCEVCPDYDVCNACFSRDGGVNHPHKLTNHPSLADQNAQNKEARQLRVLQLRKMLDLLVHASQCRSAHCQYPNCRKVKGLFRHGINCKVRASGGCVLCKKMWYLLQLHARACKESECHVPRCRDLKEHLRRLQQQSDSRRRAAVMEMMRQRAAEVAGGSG

T1: LUH (yeast two-hybrid fusion) (Arabidopsis thaliana) (UniProt O48847)
T1 sequence: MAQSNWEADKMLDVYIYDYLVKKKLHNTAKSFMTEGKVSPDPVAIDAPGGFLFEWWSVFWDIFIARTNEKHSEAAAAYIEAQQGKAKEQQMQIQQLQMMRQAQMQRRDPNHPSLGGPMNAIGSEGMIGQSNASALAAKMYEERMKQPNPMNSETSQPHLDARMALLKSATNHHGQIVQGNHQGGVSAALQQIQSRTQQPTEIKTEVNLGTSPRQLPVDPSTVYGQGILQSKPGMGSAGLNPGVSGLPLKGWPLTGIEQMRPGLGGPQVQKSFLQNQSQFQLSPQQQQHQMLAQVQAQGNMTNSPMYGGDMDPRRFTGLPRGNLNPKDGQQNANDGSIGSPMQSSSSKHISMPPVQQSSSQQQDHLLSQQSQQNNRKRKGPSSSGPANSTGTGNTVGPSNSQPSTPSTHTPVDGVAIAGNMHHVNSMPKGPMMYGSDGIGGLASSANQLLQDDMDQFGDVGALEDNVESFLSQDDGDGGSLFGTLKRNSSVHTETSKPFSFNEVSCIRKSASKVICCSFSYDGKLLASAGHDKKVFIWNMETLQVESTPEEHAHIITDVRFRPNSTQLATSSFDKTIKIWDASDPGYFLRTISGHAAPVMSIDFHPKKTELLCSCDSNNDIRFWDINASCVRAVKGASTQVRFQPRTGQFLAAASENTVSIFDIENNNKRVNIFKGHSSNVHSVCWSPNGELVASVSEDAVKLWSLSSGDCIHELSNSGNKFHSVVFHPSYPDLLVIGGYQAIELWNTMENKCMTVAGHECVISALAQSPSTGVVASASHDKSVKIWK


Key:
[1] = target: HAC1 (yeast two-hybrid fusion) (Arabidopsis thaliana) (UniProt Q9C5X9); assay: two-hybrid; Gal4 Matchmaker system, pGAD-T7 and pGBK-T7 in yeast AH109, growth on SD-LTHA; 3-AT added for auto-activating constructs (5 mM for SWI3C, BRIP2 and HAC1)
[2] = target: T1, LUH (yeast two-hybrid fusion) (Arabidopsis thaliana); assay: as above
[3] = target: HAC1, YFP-C fusion (BiFC) (Arabidopsis thaliana) (UniProt Q9C5X9); assay: split reporter; BiFC: YFP-N and YFP-C fusions co-infiltrated with p19 into Nicotiana benthamiana leaves, confocal imaging two days after infiltration

Binder	binding [1]	binding [2]	binding [3]
SCRM, activation domain fusion (yeast two-hybrid) (protein, UniProt Q9LSE2 1-494) MGLDGNNGGGVWLNGGGGEREENEEGSWGRNQEDGSSQFKPMLEGDWFSSNQPHPQDLQMLQNQPDFRYFGGFPFNPNDNLLLQHSIDSSSSCSPSQAFSLDPSQQNQFLSTNNNKGCLLNVPSSANPFDNAFEFGSESGFLNQIHAPISMGFGSLTQLGNRDLSSVPDFLSARSLLAPESNNNNTMLCGGFTAPLELEGFGSPANGGFVGNRAKVLKPLEVLASSGAQPTLFQKRAAMRQSSGSKMGNSESSGMRRFSDDGDMDETGIEVSGLNYESDEINESGKAAESVQIGGGGKGKKKGMPAKNLMAERRRRKKLNDRLYMLRSVVPKISKMDRASILGDAIDYLKELLQRINDLHNELESTPPGSLPPTSSSFHPLTPTPQTLSCRVKEELCPSSLPSPKGQQARVEVRLREGRAVNIHMFCGRRPGLLLATMKALDNLGLDVQQAVISCFNGFALDVFRAEQCQEGQEILPDQIKAVLFDTAGYAGMI	binds weakly	binds	–
FAMA (yeast two-hybrid fusion) (protein, UniProt Q56YJ8 1-414) MDKDYSAPNFLGESSGGNDDNSSGMIDYMFNRNLQQQQKQSMPQQQQHQLSPSGFGATPFDKMNFSDVMQFADFGSKLALNQTRNQDDQETGIDPVYFLKFPVLNDKIEDHNQTQHLMPSHQTSQEGGECGGNIGNVFLEEKEDQDDDNDNNSVQLRFIGGEEEDRENKNVTKKEVKSKRKRARTSKTSEEVESQRMTHIAVERNRRKQMNEHLRVLRSLMPGSYVQRGDQASIIGGAIEFVRELEQLLQCLESQKRRRILGETGRDMTTTTTSSSSPITTVANQAQPLIITGNVTELEGGGGLREETAENKSCLADVEVKLLGFDAMIKILSRRRPGQLIKTIAALEDLHLSILHTNITTMEQTVLYSFNVKITSETRFTAEDIASSIQQIFSFIHANTNISGSSNLGNIVFT	binds weakly	binds	–
MUTE (yeast two-hybrid fusion) (protein, UniProt Q9M8K6 1-202) MSHIAVERNRRRQMNEHLKSLRSLTPCFYIKRGDQASIIGGVIEFIKELQQLVQVLESKKRRKTLNRPSFPYDHQTIEPSSLGAATTRVPFSRIENVMTTSTFKEVGACCNSPHANVEAKISGSNVVLRVVSRRIVGQLVKIISVLEKLSFQVLHLNISSMEETVLYFFVVKIGLECHLSLEELTLEVQKSFVSDEVIVSTN	binds weakly	–	–
SCRM, YFP-N fusion (BiFC) (protein, UniProt Q9LSE2 1-494) MGLDGNNGGGVWLNGGGGEREENEEGSWGRNQEDGSSQFKPMLEGDWFSSNQPHPQDLQMLQNQPDFRYFGGFPFNPNDNLLLQHSIDSSSSCSPSQAFSLDPSQQNQFLSTNNNKGCLLNVPSSANPFDNAFEFGSESGFLNQIHAPISMGFGSLTQLGNRDLSSVPDFLSARSLLAPESNNNNTMLCGGFTAPLELEGFGSPANGGFVGNRAKVLKPLEVLASSGAQPTLFQKRAAMRQSSGSKMGNSESSGMRRFSDDGDMDETGIEVSGLNYESDEINESGKAAESVQIGGGGKGKKKGMPAKNLMAERRRRKKLNDRLYMLRSVVPKISKMDRASILGDAIDYLKELLQRINDLHNELESTPPGSLPPTSSSFHPLTPTPQTLSCRVKEELCPSSLPSPKGQQARVEVRLREGRAVNIHMFCGRRPGLLLATMKALDNLGLDVQQAVISCFNGFALDVFRAEQCQEGQEILPDQIKAVLFDTAGYAGMI	–	–	binds weakly
FAMA, YFP-N fusion (BiFC) (protein, UniProt Q56YJ8 1-414) MDKDYSAPNFLGESSGGNDDNSSGMIDYMFNRNLQQQQKQSMPQQQQHQLSPSGFGATPFDKMNFSDVMQFADFGSKLALNQTRNQDDQETGIDPVYFLKFPVLNDKIEDHNQTQHLMPSHQTSQEGGECGGNIGNVFLEEKEDQDDDNDNNSVQLRFIGGEEEDRENKNVTKKEVKSKRKRARTSKTSEEVESQRMTHIAVERNRRKQMNEHLRVLRSLMPGSYVQRGDQASIIGGAIEFVRELEQLLQCLESQKRRRILGETGRDMTTTTTSSSSPITTVANQAQPLIITGNVTELEGGGGLREETAENKSCLADVEVKLLGFDAMIKILSRRRPGQLIKTIAALEDLHLSILHTNITTMEQTVLYSFNVKITSETRFTAEDIASSIQQIFSFIHANTNISGSSNLGNIVFT	–	–	binds weakly
MUTE, YFP-N fusion (BiFC) (protein, UniProt Q9M8K6 1-202) MSHIAVERNRRRQMNEHLKSLRSLTPCFYIKRGDQASIIGGVIEFIKELQQLVQVLESKKRRKTLNRPSFPYDHQTIEPSSLGAATTRVPFSRIENVMTTSTFKEVGACCNSPHANVEAKISGSNVVLRVVSRRIVGQLVKIISVLEKLSFQVLHLNISSMEETVLYFFVVKIGLECHLSLEELTLEVQKSFVSDEVIVSTN	–	–	binds weakly
LUH (yeast two-hybrid fusion) (protein, UniProt O48847 1-787) MAQSNWEADKMLDVYIYDYLVKKKLHNTAKSFMTEGKVSPDPVAIDAPGGFLFEWWSVFWDIFIARTNEKHSEAAAAYIEAQQGKAKEQQMQIQQLQMMRQAQMQRRDPNHPSLGGPMNAIGSEGMIGQSNASALAAKMYEERMKQPNPMNSETSQPHLDARMALLKSATNHHGQIVQGNHQGGVSAALQQIQSRTQQPTEIKTEVNLGTSPRQLPVDPSTVYGQGILQSKPGMGSAGLNPGVSGLPLKGWPLTGIEQMRPGLGGPQVQKSFLQNQSQFQLSPQQQQHQMLAQVQAQGNMTNSPMYGGDMDPRRFTGLPRGNLNPKDGQQNANDGSIGSPMQSSSSKHISMPPVQQSSSQQQDHLLSQQSQQNNRKRKGPSSSGPANSTGTGNTVGPSNSQPSTPSTHTPVDGVAIAGNMHHVNSMPKGPMMYGSDGIGGLASSANQLLQDDMDQFGDVGALEDNVESFLSQDDGDGGSLFGTLKRNSSVHTETSKPFSFNEVSCIRKSASKVICCSFSYDGKLLASAGHDKKVFIWNMETLQVESTPEEHAHIITDVRFRPNSTQLATSSFDKTIKIWDASDPGYFLRTISGHAAPVMSIDFHPKKTELLCSCDSNNDIRFWDINASCVRAVKGASTQVRFQPRTGQFLAAASENTVSIFDIENNNKRVNIFKGHSSNVHSVCWSPNGELVASVSEDAVKLWSLSSGDCIHELSNSGNKFHSVVFHPSYPDLLVIGGYQAIELWNTMENKCMTVAGHECVISALAQSPSTGVVASASHDKSVKIWK	binds	–	–
